Data taken from PubChem BioAssay AID1794845 (National Center for Advancing Translational Sciences (NCATS), 2023).
The campaign covered roughly 6,900 compounds. Fewer than 10 were called active. The call rests on the fitted dose curve; in most records, active means well fitted curve in the direction sought with a large enough effect; inconclusive means small, poorly fitted or top-dose-only effect, or another doubt; inactive means no such curve, though single readings can be large or run the other way. Some of the results follow.

Protein sequences, listed by entry. Tags and fused reporters are not part of them. Lines headed by an entry give the natural chain unless they say otherwise; changes in a name come on top.
UniProt C7C422: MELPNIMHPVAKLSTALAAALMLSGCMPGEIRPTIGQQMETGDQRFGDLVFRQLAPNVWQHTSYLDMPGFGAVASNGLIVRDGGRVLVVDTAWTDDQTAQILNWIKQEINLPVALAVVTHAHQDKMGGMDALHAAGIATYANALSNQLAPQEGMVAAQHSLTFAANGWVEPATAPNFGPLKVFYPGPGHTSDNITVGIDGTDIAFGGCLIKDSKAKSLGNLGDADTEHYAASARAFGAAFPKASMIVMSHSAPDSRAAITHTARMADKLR

target: Metallo-beta-lactamase type 2 (Klebsiella pneumoniae) (UniProt C7C422); experiment: qHTS to identify inhibitors of the New Delhi Metallo-beta-lactamase (NDM): primary screen against the NCATS Gemini Collection; conditions: NDM-1 enzyme, meropenem hydrolysis, absorbance 300 nm; at 38.4 µM (top of the series) unless noted; further: % of control where 0% means no effect
In short: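 NDM-1 at 2 nM final in 50 mM HEPES pH 7.0, 1 uM ZnSO4, 0.01% Tween20, preincubated >30 min with compound. Meropenem 50 uM final added; absorbance at 300 nm after 30 min.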

Activity % (negative = inhibition), inactive:
Cc1cnn(CC(=O)N2CC(F)(F)C[C@H]2c2nc(C3CC3)no2)c1 2.2%, CCN1CCN(c2nc3c(s2)CN(Cc2ccccn2)CC3)CC1 -5.21%, CC1=C[C@@H](CO)[C@H](C(C)C)C[C@H]1CC(=O)NCc1cc(F)cc(F)c1 1.77% [at 57.5 µM], O=C(c1ccc(F)cc1)N1CCCC(C(=O)N2CCC(c3nc4ncccc4[nH]3)CC2)C1 (centres undefined) 2.12%, c1ccc(-c2nnc([C@H]3CCN(Cc4ccco4)C3)o2)cc1 0.128% [at 57.5 µM], CCOc1ccc(NC(=O)NCCc2noc(C)n2)cc1 -1.85%, CC1CCC2(CC1)NC(=O)N(CC(=O)N1CCc3ccccc31)C2=O (centres undefined) 7.2%, COCCO[C@H]1C(=O)N(C2CCN(C(=O)c3cnccn3)CC2)[C@H]1c1ccncc1 0.147%, CC(C)(C)N1CC(C(=O)NCCCc2ccccc2F)CC1=O (centres undefined) -1.78%, Cc1nsc(NC(=O)NCc2ccccc2OC(F)(F)F)n1 1.6%, CCOCC(=O)N[C@@H]1CN(Cc2ccccc2)C[C@H]1CN(C)C 1.95%, CSc1ccc(-c2nc(CN(C)Cc3cc(C)no3)c(C)o2)cc1 18.7%, Cn1nc2n(c1=O)CCN(Cc1ccc(Br)s1)CC2 1.51%, CS(=O)(=O)N(C1CC1)C1CCOC2(CCN(C(=O)CCC3CCCC3)CC2)C1 (centres undefined) -1.24%, Cc1noc(C)c1S(=O)(=O)N1CCC(Cc2nc(-c3cccnc3)n[nH]2)C1 (centres undefined) 43.2%, O=C(NCc1ccc(F)c(F)c1)c1ccc2nnc(Cc3ccco3)n2c1 7.63%, Cc1noc2c(NCCN(C)C)cc(-c3ccccc3)nc12 6.75% [at 57.5 µM], COC[C@@H]1[C@H](C(=O)N2CCN(c3ccccn3)CC2)CCC(=O)N1C 2.22%, Cc1c(C(=O)N2CC[C@@](O)(C3CCOCC3)[C@H](C)C2)n(C)c2c(C)cccc12 22.6%, O=C(C1CCOCC1)N1CCC2(CC1)CC(N1CCCC1)CCO2 (centres undefined) 13.4%, Cc1noc(C2CC3(CCN(C(=O)Nc4ccccc4)CC3)CN2C)n1 (centres undefined) 9.44%, CCN(C(=O)c1cccc(F)c1F)[C@@H]1CCN(c2ncccc2C#N)C[C@H]1O 0.202%, O=C(NCc1ccc(F)cc1)[C@@H]1C[C@H](c2ccc(F)cc2)N([S+](=O)([O-])C2CC2)C1 -0.046% [at 57.5 µM], CC(C)c1noc([C@@H]2C[C@H](NS(=O)(=O)c3ccccc3)CN2C)n1 3.48% [at 57.5 µM], COc1cccc(CCC(=O)N2CCC(n3cc(-c4nc(-c5ccccc5)no4)nn3)C2)c1 (centres undefined) 2.63%, CC(=O)N1CCN(C(=O)c2cc(-c3ccc(F)cc3)c3nncn3n2)CC1 8.34%, O=C1NC2(CN([S+](=O)([O-])c3ccsc3)C2)Oc2ccccc21 2.5% [at 57.5 µM], CC(=O)N1CCCC1c1nnc2n1CCNC2 (centres undefined) 6.83% [at 57.5 µM], O=C(NCc1ccc(F)cc1)c1ccc2nnc(CC3CC3)n2c1 -0.497% [at 57.5 µM], COc1ccc(NC(=O)N2C[C@@H]3C[C@H](C2)c2ccc(NC(=O)c4ccccn4)c(=O)n2C3)cc1 2.94%, CN(C)c1ccc(CCc2nc(C3CCOC3)no2)cc1 (centres undefined) 4.84%, O=C(c1ccc(C(F)(F)F)cc1)N1CCC2(CC1)CNc1ccccc1[S+](=O)([O-])N2 1.48%, Cc1nc2scc(CC(=O)N3CCOCC3)n2c(=O)c1-c1cc(C)n(-c2ccc(F)cc2)n1 8.07%, CC(C)CCN1C[C@@H]2C(=O)N(CCc3ccccc3)C(=O)[C@@H]2C1 9.39%, COCCNC(=O)[C@@H]1C[C@@H](O)CN1C1CCN(C(=O)Cc2ccccc2)CC1 -3.06%, O=C(Nc1cccc(Cl)c1)N1CC(n2cc(COc3ccccc3)nn2)C1 -0.641%, O=C(Nc1ccc(F)cc1)c1ccc2cc[nH]c2n1 20.9% [at 57.5 µM], C[C@@H](NS(=O)(=O)c1ccc(Cl)cc1)c1onc(-c2ccc(F)cc2)c1C(=O)O 21.9% [at 57.5 µM], O=C(CCCc1c[nH]c2ccccc12)N1CCc2nc3cc[nH]n3c(=O)c2C1 5.38%, Cn1cnnc1-c1nn(C)c2c1CNCC2 3.66%, O=C(CN1CC2CC(C1)[C@H]1CCCC(=O)N1C2)N1CCN(c2ccc(Cl)cc2)CC1 (some centres undefined) -6.23%, CCN1C(=O)C2CC3(CCN(C(=O)c4cc(C)n(CCOC)c4C)CC3)CN2C1=O (centres undefined) 9.95%, c1cc2c(cc1CN1CCOCC1)CNCCO2 -2.06%, CC(C)NC(=O)[C@@H]1C[C@@H](N)CN1C(=O)c1cccc2ccccc12 2.07%, O=C1CCN(C(=O)c2cc3ccccc3[nH]2)CCCCCCN1 24%, CN(C1CCCCC1)S(=O)(=O)C1CCS(=O)(=O)C1 (centres undefined) -0.408%, O=C(N[C@@H]1CN(C(=O)c2nccc3ccccc23)C[C@H]1CO)c1ccccc1 -0.936%, C[S+](=O)([O-])NCCNC(=O)c1cccc(-c2ccc(C(F)(F)F)cc2)c1 -5.03%, Cc1cccc(OCC(=O)c2ccc3c(c2)N(C(C)C(=O)N2CCOCC2)C(=O)CO3)c1C (centres undefined) 8.23%, COc1cc(CN2CCN(c3ccc(C#N)cn3)CC2CCO)cc(OC)c1 (centres undefined) 19.5%, O=C(c1ccccc1Cl)N1CCCC(C(=O)N2CCC(c3ccccc3)CC2)C1 (centres undefined) 10%, CCO[C@H]1CN(C(=O)Cc2ccccc2OCc2ccccc2)C[C@@H]1O 72.3%, CNC(=O)[C@H]1C[C@]2(CCCCNC2=O)N(C(=O)c2cccc(C#N)c2)[C@H]1c1ccco1 1.12%, COc1ccc(N2CC3CCC(C2)N3C(=O)NC(C)C)cc1 4.56%, CNC(=O)c1cc(C)nc2onc(C3CCN(C(=O)c4ccccc4Cl)C3)c12 (centres undefined) 3.46%, CCOCC(O)Cn1cnc(-c2ccccc2)c1-c1cccc(OC)c1F (centres undefined) -10.4%, CC(c1cccs1)N(C)Cc1ccncc1 (centres undefined) 0.677% [at 57.5 µM], Cc1ccc(OCCC2CCN(C(=O)c3cc(CN4CCOCC4)on3)C2)cc1 (centres undefined) -0.73%, CCN1CCC(N2CCCC(N3CCN(c4cccc(Cl)c4)CC3)C2)CC1 (centres undefined) 48.3%, CN(C)c1ccc2ncc(Nc3ccc(Cl)cn3)n2n1 1.88% [at 77.1 µM], CCCNC(=O)N(C1CCOCC1)C1CCN(C(=O)c2nn(C)c3ccccc23)CC1 9.59%, O=C(c1n[nH]c2ccccc12)N1CC2CC(C1)[C@H]1CCCC(=O)N1C2 (some centres undefined) 17%, N#Cc1ccc(CN2CCC3(CNc4ccccc4[S+](=O)([O-])N3)C2)cc1 (centres undefined) 3.22%, CCOC(=O)C(Cc1cccc(N2CCN([S+](=O)([O-])c3ccccc3Cl)CC2)c1)OC (centres undefined) 0.0904%, OC[C@@H]1O[C@H](CNCc2ccc(F)cc2)[C@H](N2CCCC2)[C@@H]1O 22.3% [at 57.5 µM], CO[C@H]1CN(C2CCN(C(=O)C3CCN(C(C)=O)CC3)CC2)[C@H]1c1ccncc1 6.27%, CCOc1cccc(CN2CCc3c(c(CN(C(C)=O)c4ccccc4)nn3C)C2)c1O 1.47%, CC(=O)c1cc(C(=O)NCc2c(C)ncc3c2CCNC3)[nH]n1 1.33%, CNC(=O)[C@@H]1CN(C(=O)c2ccc(F)c(Cl)c2)C[C@H]1COC 6.05%, Fc1ccc(-c2cccc(CN3CC4CCC(C3)N4c3ccc(C(F)(F)F)cc3)c2)c(F)c1 5.91%, O=C(NCC1CN(C(=O)Cc2ccc(C(F)(F)F)cc2)CC12CN(c1ccccc1)C2)c1ccccc1 (centres undefined) 0.75%, CCOc1ccc(C(=O)N2c3ccccc3CC2c2nc(CCOC)no2)cc1 (centres undefined) -0.78%, O=C1CCCCC(CNC(=O)C2(c3ccccc3)CC2)N1 (centres undefined) -0.899%, O=C(O)CCCC(=O)N[C@H]1CO[C@H]2[C@@H]1OC[C@@H]2Nc1nccc(-c2ccc3c(c2)OCO3)n1 4.02%, O=C(c1ccc(Cn2cccn2)o1)N1CCC2(CC1)[C@H](O)C[C@@H]2O -0.202%, CC(C)NC(=O)C[C@@H]1C[C@H]2O[C@H](CNC(=O)NCc3ccccc3)[C@@H](O)[C@H]2O1 -5.17% [at 57.5 µM], CCc1cccc(NC(=O)N2CC(c3nnc(C(C)C)o3)C3(CCOCC3)C2)c1 (centres undefined) -0.479%, O=[S+]([O-])(Nc1ccccc1)c1ccc2c(c1)OCCN(Cc1nccs1)C2 -1.87% [at 57.5 µM], CNC(=O)Nc1ccc(C)n(CC(=O)N2CCN(c3cc(C)ccc3C)CC2)c1=O 4.54%, Cn1nnnc1C1CCCN(C(=O)CCC2CCCC2)C1 (centres undefined) -3.83%, COc1ccc(CN2C(=O)[C@H](OC)[C@@H]2C2=CCN(C(=O)CC(C)C)CC2)cc1 15%, O=S(=O)(c1ccccc1C(F)(F)F)N1CC(c2nc(-c3ccncc3)no2)C1 -0.186%, CCN(CC)c1cc(CCC(=O)NCCCN2CCOCC2)ccn1 5.59%, CNC(=O)[C@@H](CC(C)C)N1CCC[C@H]1C(=O)NCCc1ccccn1 12.8% [at 57.5 µM]
